These are yes or no findings as the source states them, for the method shown. Tags and fused reporters may be left off the sequences shown.
Target: T1, GFP-Aub (functional and methylated, from fly ovaries) (Drosophila) (UniProt O76922)
T1 sequence (chain, methylated (sDMAs), positions not printed): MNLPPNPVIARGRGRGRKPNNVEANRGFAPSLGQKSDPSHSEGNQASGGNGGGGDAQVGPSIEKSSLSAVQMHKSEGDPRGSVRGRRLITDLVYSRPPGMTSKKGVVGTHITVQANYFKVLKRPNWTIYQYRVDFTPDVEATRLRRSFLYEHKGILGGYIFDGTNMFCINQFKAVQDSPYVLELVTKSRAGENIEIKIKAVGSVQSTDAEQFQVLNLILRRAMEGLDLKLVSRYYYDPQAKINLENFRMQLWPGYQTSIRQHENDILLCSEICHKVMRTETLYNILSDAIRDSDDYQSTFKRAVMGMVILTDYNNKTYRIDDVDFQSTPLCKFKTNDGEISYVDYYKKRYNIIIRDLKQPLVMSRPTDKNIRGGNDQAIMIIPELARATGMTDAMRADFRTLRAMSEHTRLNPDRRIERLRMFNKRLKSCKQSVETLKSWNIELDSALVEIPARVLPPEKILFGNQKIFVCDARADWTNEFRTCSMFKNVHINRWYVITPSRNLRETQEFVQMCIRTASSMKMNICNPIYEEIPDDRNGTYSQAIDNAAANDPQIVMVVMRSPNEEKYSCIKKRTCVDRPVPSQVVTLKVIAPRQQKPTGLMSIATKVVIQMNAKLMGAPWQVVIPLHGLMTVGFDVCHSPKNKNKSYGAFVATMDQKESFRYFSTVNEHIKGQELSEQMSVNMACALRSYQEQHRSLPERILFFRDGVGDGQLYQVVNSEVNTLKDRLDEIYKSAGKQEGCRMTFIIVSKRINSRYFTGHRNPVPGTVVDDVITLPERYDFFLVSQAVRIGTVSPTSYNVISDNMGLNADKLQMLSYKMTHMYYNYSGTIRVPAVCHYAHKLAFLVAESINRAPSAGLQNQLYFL
Test: pull-down; GFP-Aub from fly ovaries held on anti-GFP agarose beads; partially purified His-SUMO Tud domains added; 50 µl reactions, 4 °C, 30 min, binding buffer PBS + 0.05% IGEPAL CA-630; 4 washes; bound domains detected by anti-His-tag western blot; both purified

B1: Tud domain 2 (amino acids 405-585 of Tudor) (domain or fragment, UniProt P25823 405-585)
chain: SLTVGLTYDVVISYVENGPYLFWVHLKSSDHDLSTMMGQIERTKLKALAQAPELGTACVARFSEDGHLYRAMVCAVYAQRYRVVYVDYGNSELLSASDLFQIPPELLEIKPFAFRFALAGTKEIEPIDDSMKRIFKKSAIYRNFELTVQAPESVGSMQTCHLNQNGTNMLELLRQLKNSRQ
binding: no binding
